Some entries share one result that the patent states for a list of compounds. At least one structure is not confirmed: it was looked up by name or label, or the drawing left a doubt.
What was measured:
[1] = target: T1, hERG (human ether-à-go-go-related gene) potassium channel (Homo sapiens, UniProt Q12809); assay: hERG patch clamp test (QPatch HT) in HEK293 cells; type: cell-based; details: 10, 50, 100 and 200 μM; room temperature; 3 minutes exposure
T1 construct: expressed in transfected cells; host or cells: HEK293

Protein sequences, listed by entry. Tags and fused reporters are not part of them. Lines headed by an entry give the natural chain unless they say otherwise; changes in a name come on top.
UniProt Q12809: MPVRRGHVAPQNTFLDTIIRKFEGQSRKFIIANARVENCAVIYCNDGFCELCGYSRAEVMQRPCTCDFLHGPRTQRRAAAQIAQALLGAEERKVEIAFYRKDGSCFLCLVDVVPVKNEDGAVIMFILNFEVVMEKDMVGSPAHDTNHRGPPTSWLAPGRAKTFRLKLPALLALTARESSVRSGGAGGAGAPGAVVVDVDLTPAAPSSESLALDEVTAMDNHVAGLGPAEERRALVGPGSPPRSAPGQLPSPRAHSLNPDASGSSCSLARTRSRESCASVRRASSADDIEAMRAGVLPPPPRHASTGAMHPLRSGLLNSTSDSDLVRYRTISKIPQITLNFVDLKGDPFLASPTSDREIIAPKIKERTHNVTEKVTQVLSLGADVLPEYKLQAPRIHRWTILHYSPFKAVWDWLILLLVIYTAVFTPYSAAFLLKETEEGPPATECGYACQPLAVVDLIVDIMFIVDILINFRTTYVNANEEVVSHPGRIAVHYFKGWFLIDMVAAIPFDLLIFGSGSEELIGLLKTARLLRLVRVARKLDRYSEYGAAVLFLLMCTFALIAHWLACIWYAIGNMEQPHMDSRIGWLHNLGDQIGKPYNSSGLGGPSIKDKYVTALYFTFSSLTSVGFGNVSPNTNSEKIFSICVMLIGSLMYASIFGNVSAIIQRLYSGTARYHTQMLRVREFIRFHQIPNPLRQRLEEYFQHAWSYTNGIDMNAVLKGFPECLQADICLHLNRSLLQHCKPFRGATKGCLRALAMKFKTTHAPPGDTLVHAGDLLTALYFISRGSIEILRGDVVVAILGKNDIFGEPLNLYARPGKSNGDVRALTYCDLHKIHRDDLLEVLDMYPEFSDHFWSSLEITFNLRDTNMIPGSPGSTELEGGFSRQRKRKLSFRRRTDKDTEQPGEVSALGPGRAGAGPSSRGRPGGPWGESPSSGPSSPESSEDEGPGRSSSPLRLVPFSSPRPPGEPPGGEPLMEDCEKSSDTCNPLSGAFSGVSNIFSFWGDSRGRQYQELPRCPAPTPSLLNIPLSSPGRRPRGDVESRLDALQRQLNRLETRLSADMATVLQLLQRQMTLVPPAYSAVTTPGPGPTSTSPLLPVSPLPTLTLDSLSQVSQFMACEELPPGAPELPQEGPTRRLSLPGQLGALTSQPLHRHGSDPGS

[2] = test system: MDBK, Vero, and HFF cell lines; details: a number of cell lines (MDBK, Vero, HFF); 24-hour incubation, MTT
Method: SB 44 was subjected to cytotoxicity evaluation against a panel of cell lines including Madin-Darby bovine kidney (MDBK), Vero, and HFF (human foreskin fibroblasts) to determine their CC50. Standard Microculture Tetrazolium Assay (MTT) assays were performed in 96-well plates using MDBK, Vero, and HFF cell lines (obtained from American Type Cell Collection). Controls included the nucleoside analogs 3TC, AZT, and ddC, as well as media without drugs. SDS was used as a positive cytotoxic control. All prodrugs were tested in triplicate at concentrations of 100, 300, and 1000 μM. Following a 24-hour incubation of cells with the test substance, the MTT assay was carried out.
Standard MTT assays were performed in 96-well plates using the Promega CellTiter96 Non-radioactive Cell Proliferation Assay Kit in conjunction with a 96-well Plate Reader (ThermoMax, Molecular devices), and MDBK, Vero, and HFF cell lines (obtained from ATCC). Several controls were employed including the nucleoside analogs 3TC, AZT, and ddC, as well as, media without drugs. SDS was used as a positive cytotoxic control. The compounds were tested in triplicate at concentrations of 100, 300, and 1000 μM. Following a 24-hour incubation of cells with the test substance, the MTT assay was carried out.

COC1C(OP(=O)(S)OCC2OC(n3cnc4c(N)ncnc43)CC2O)C(CO)OC1n1ccc(=O)[nH]c1=O (mixture of isomers) [SB 40]
IC50 [1]: > 200 µM

COC1C(OP(=O)(OCC2OC(n3cnc4c(N)ncnc43)CC2O)SCOC(=O)OC(C)C)C(CO)OC1n1ccc(=O)[nH]c1=O (mixture of isomers) [SB 44]
IC50 [1]: > 200 µM

CO[C@H]1C(OP(=O)(S)OC[C@H]2O[C@@H](n3cnc4c(N)ncnc43)CC2O)[C@@H](CO)O[C@H]1n1ccc(=O)[nH]c1=O (stereo partly drawn) [Compound 1, 3-dApsU2′-OMe]
CC50 [2]: > 1 mM

Reference: US10391166B2, “Short oligonucleotides as vaccine adjuvants and therapeutic agents” (priority 2013, dated 2019)
